The other results are listed elsewhere or left out.
What was measured:
Assay in all cases: log2 fold change, soluble protein after heating vs DMSO (PISA); higher = thermal stabilisation; K562 lysate, 10 uM; active = over 0.2 and 3.5 SD of the protein, either way, in both replicates (recomputed)
[1] = compound: CN1CC[C@H](c2c(O)cc(O)c3c(=O)cc(-c4ccccc4Cl)oc23)[C@H](O)C1 [alvocidib]
How it was run: (§1)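 Values give the log-two fold change in thermal stability against solvent controls, from duplicates. Crude K562 extract at 1 mg/mL protein, made by dounce homogenisation in PBS pH 7.4 with 1 mM MgCl2, was treated with 10 μM compound for 30 min. After 3 min heating across 48°C-58°C, aliquots were pooled, adjusted to 0.5% NP-40 at 4°C and centrifuged at 21,000xg for 90 min. The supernatant was measured by TMTpro 16plex LC-MS/MS with channel sums equalised.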

By UniProt entry, the sequences of proteins in these tests, tags left out. Where a name states a change or a piece, a line headed by the entry shows the natural chain unless it says otherwise.
UniProt Q7Z4G1, whole entry, looked up: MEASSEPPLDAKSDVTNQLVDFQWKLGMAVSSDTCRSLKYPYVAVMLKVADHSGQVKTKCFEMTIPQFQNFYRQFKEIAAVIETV
UniProt Q96I36: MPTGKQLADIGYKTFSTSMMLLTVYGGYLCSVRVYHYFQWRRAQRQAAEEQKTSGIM
UniProt Q86YQ8: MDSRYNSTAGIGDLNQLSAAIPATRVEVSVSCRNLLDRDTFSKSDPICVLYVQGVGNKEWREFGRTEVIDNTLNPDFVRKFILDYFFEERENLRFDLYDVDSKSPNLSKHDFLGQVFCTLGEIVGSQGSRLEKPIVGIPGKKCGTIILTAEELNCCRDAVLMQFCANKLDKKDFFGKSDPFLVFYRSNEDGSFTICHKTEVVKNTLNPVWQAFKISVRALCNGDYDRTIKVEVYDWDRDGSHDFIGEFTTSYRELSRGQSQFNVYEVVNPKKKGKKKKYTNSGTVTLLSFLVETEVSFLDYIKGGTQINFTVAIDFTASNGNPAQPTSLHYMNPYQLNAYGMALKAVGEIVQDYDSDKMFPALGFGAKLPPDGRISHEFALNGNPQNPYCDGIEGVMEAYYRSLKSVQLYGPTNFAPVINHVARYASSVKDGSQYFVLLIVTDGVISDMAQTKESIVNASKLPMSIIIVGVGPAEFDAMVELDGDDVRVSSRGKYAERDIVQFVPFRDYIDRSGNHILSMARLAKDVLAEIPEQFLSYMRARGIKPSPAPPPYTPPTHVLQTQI
UniProt Q9UNS2: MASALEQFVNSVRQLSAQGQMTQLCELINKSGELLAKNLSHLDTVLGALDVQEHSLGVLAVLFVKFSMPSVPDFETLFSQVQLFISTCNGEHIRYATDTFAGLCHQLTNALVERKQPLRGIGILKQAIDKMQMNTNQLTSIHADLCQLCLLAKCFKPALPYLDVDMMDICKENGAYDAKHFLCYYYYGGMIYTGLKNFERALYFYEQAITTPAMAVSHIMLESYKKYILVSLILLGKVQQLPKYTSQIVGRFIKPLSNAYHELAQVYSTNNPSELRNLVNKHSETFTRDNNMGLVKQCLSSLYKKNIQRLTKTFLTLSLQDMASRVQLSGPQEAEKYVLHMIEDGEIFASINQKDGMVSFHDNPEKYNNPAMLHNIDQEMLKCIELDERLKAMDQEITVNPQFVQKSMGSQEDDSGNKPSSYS
UniProt Q9UI42: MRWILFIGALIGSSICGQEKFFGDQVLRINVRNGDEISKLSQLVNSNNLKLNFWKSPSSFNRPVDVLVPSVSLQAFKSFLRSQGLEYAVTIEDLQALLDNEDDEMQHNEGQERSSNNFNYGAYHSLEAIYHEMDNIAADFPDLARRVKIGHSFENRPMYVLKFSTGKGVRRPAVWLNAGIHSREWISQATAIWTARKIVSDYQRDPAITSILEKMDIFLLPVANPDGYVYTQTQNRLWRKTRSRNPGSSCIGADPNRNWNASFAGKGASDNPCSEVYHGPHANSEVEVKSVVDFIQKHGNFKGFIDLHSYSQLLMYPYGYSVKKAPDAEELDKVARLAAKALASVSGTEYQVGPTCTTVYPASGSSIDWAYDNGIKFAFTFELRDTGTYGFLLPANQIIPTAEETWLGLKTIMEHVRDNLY
UniProt Q05707: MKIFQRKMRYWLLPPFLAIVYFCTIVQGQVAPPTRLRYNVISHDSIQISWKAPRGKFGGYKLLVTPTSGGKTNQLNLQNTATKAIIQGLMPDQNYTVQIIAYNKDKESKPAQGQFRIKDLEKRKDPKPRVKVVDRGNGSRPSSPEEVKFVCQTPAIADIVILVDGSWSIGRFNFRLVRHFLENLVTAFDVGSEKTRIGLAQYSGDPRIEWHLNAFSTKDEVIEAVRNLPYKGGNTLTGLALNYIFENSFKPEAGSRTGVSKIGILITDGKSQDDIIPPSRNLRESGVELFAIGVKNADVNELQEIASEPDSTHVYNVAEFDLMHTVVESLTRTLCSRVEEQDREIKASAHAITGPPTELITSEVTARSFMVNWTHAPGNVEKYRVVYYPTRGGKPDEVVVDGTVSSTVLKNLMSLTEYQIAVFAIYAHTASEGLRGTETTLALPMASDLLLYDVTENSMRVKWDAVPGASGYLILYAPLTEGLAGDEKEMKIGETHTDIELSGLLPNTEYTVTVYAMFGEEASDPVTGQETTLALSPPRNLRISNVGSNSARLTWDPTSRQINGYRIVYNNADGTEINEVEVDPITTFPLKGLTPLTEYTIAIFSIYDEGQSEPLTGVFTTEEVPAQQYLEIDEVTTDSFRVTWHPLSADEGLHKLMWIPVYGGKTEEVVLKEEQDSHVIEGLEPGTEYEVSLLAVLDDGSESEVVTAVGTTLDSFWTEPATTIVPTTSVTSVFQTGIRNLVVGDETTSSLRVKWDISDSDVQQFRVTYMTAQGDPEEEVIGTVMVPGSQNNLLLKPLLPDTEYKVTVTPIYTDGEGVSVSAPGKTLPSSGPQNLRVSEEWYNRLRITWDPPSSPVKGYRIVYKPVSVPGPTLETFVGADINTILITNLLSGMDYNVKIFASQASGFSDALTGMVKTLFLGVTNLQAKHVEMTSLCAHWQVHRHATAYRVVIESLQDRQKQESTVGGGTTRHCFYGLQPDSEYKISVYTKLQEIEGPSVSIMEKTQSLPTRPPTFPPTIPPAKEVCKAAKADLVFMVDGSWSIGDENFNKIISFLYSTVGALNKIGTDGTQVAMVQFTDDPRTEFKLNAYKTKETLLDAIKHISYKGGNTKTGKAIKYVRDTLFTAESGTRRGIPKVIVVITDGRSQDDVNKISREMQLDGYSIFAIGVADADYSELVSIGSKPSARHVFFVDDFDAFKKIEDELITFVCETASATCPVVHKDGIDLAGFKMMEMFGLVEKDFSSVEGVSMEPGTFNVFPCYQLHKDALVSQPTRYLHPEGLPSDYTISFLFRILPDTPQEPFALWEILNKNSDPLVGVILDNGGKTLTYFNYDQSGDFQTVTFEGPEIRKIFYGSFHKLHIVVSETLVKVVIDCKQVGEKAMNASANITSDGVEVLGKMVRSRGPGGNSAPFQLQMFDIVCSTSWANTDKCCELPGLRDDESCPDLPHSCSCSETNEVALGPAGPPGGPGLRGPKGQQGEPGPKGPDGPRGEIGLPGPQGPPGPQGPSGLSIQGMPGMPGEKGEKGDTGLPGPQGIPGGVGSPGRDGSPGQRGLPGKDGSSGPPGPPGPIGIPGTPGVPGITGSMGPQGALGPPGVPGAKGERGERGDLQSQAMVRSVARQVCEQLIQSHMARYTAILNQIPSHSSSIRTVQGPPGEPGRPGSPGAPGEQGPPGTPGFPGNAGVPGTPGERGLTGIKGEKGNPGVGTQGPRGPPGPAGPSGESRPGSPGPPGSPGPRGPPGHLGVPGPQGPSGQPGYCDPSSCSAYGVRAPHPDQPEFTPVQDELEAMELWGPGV
UniProt Q14061: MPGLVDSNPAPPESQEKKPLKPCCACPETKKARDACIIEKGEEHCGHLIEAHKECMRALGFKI
UniProt Q96D53: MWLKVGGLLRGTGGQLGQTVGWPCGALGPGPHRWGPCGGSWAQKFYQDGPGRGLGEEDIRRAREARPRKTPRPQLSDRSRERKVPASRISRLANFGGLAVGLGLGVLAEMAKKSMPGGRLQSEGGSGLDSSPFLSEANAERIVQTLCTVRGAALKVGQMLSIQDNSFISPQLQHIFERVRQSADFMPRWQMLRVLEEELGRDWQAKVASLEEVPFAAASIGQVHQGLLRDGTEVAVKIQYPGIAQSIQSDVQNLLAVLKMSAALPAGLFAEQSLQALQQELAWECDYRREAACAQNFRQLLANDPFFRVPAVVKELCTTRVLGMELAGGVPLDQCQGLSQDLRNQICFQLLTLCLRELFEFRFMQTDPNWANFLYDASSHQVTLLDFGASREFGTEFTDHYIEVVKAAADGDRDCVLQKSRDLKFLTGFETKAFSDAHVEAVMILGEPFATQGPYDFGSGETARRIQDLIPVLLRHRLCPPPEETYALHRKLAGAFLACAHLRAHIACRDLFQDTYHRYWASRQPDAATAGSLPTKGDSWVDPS
UniProt Q9BWP8: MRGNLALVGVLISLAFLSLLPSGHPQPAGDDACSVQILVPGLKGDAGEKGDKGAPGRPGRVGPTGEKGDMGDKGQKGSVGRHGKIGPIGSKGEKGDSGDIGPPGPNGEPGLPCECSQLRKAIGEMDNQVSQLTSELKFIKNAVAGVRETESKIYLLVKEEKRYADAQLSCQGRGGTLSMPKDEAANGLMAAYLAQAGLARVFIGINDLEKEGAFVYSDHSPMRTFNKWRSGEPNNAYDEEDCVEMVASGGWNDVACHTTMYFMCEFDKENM
UniProt P02452, whole entry, looked up: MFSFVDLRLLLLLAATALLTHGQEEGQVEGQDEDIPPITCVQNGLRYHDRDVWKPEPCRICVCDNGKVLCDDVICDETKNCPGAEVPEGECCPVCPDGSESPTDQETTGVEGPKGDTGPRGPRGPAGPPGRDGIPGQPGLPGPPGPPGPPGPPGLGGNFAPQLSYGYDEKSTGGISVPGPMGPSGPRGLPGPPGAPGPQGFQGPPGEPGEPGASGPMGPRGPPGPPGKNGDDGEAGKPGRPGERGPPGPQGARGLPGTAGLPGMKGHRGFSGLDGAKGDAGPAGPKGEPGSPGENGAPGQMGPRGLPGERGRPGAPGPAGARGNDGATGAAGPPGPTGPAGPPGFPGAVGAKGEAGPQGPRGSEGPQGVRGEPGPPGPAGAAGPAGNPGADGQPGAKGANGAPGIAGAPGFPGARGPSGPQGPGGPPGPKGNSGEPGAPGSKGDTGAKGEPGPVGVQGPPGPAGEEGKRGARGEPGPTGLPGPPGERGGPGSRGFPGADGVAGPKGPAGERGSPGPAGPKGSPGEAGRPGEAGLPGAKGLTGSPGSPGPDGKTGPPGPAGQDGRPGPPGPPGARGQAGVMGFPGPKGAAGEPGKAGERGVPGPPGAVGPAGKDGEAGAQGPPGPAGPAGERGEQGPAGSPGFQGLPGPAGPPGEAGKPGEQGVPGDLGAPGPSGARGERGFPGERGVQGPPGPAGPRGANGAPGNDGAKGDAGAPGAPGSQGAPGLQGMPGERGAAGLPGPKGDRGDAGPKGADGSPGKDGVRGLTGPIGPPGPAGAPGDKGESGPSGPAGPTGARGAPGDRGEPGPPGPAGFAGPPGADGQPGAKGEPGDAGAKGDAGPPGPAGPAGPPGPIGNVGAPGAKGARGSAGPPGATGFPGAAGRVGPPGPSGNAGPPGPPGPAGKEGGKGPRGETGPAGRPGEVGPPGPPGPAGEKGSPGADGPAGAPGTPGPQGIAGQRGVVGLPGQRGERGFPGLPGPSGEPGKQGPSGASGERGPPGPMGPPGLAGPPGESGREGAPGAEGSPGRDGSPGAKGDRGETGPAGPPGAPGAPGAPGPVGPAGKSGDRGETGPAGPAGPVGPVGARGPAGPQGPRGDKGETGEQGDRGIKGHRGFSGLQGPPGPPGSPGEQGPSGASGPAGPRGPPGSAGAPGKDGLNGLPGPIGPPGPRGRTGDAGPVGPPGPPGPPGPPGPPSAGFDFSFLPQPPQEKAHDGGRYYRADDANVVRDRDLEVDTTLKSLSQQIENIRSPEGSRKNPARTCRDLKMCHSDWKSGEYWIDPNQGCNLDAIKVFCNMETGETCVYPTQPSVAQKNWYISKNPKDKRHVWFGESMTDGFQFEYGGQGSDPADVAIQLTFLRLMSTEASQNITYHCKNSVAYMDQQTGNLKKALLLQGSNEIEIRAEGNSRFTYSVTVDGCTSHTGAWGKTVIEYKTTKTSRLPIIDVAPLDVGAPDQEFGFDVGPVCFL
UniProt Q6QEF8, whole entry, looked up: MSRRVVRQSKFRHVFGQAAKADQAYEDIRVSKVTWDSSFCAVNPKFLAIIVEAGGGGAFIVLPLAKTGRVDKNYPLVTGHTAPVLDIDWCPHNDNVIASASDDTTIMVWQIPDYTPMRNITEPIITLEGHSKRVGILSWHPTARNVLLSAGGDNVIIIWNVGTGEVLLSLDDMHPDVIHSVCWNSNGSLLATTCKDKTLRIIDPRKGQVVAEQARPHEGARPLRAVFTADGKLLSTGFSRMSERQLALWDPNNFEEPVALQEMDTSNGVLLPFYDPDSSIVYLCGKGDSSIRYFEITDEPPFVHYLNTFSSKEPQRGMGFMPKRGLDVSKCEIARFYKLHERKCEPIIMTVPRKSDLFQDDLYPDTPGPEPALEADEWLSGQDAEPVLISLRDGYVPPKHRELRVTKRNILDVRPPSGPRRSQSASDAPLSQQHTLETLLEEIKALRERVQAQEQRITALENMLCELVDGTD

[2] = compound: CN1CCc2c(c3ccccc3n2Cc2ccc(C(=O)NO)cc2)C1 [Tubastatin A]
How it was run: as §1

[3] = compound: CNC(=O)C1=CC=CC=C1NC2=NC(=NC=C2Cl)NC3=C(C=C(C=C3)N4CCOCC4)OC
How it was run: as §1

[4] = compound: CNc1nc(-c2ccc3c(N)n[nH]c3c2)cc(N2C[C@@H](C(=O)NC3CCCCC3)CC[C@H]2C)n1
How it was run: as §1

[5] = compound: COC(=O)N[C@@H](C)CNc1nccc(-c2cn(C(C)C)nc2-c2cc(Cl)cc(NS(C)(=O)=O)c2F)n1 [encorafenib]
How it was run: as §1

[6] = compound: COC(=O)[C@H](CCSC)NC(=O)C1=C(C=C(C=C1)NC[C@H](CS)N)C2=CC=CC=C2
How it was run: as §1

[7] = compound: COc1cc(Nc2ncc3c(n2)-c2ccc(Cl)cc2C(c2c(F)cccc2OC)=NC3)ccc1C(=O)O [alisertib]
How it was run: as §1

[8] = compound: COc1cc2nc(-c3cc(F)ccc3O)nc(N[C@@H]3CNC[C@H]3C(C)(C)O)c2cc1OC
How it was run: as §1

[9] = compound: COc1cc2ncnc(Nc3ccc(F)c(Cl)c3)c2cc1OCCCN1CCOCC1 [gefitinib]
How it was run: as §1

[10] = compound: CS(=O)(=O)CCNCc1ccc(-c2ccc3ncnc(Nc4ccc(OCc5cccc(F)c5)c(Cl)c4)c3c2)o1 [lapatinib]
How it was run: as §1

[11] = compound: CS(=O)(=O)N1CCN(Cc2cc3nc(-c4cccc5[nH]ncc45)nc(N4CCOCC4)c3s2)CC1 [pictilisib]
How it was run: as §1

[12] = compound: C[C@@H](Oc1cc(-c2cnn(C3CCNCC3)c2)cnc1N)c1c(Cl)ccc(F)c1Cl [crizotinib]
How it was run: as §1

[13] = compound: C[C@H](C1=CC=C(C=C1)C(=O)NC2=C3C=CNC3=NC=C2)N
How it was run: as §1

[14] = compound: C[C@H](Nc1ncnc2nc[nH]c12)c1cc2cccc(Cl)c2c(=O)n1-c1ccccc1 [duvelisib]
How it was run: as §1

[15] = compound: Cc1cc(Nc2cc(CN3CCOCC3)c3nc(C)c(Cc4ccc(Cl)cc4F)n3n2)n[nH]1 [gandotinib]
How it was run: as §1

[16] = compound: Cc1cc(Nc2cc(N3CCN(C)CC3)nc(Sc3ccc(NC(=O)C4CC4)cc3)n2)n[nH]1 [tozasertib]
How it was run: as §1

[17] = compound: Cc1ccc(-n2nc(C(C)(C)C)cc2NC(=O)Nc2ccc(OCCN3CCOCC3)c3ccccc23)cc1 [doramapimod]
How it was run: as §1

[18] = compound: Cc1ccc(NC(=O)c2ccc(CN3CC[C@H](N(C)C)C3)c(C(F)(F)F)c2)cc1Nc1nccc(-c2cncnc2)n1 [bafetinib]
How it was run: as §1

[19] = compound: Cc1cccc(CC(=O)N2CCc3c2ccc(-c2cn(C)c4ncnc(N)c24)c3F)n1
How it was run: as §1

[20] = compound: CNC(=O)c1ccc(Nc2ncc(C(F)(F)F)c(NCc3nccnc3N(C)S(C)(=O)=O)n2)cc1 [defactinib]
How it was run: as §1

Measured: log2 fold change

COMMD6 isoform 2 (UniProt Q7Z4G1)
inactive: [1] 0.063 | [2] -0.064 | [3] 0.054 | [4] -0.133 | [5] 0.046 | [6] -0.035 | [7] -0.051 | [8] 0.071 | [9] -0.159 | [10] 0.109 | [11] 0.023 | [12] -0.042 | [13] 0.186 | [14] -0.012 | [15] -0.149 | [16] -0.098 | [17] 0.006 | [18] -0.146 | [19] 0.011

COX14 (UniProt Q96I36)
inactive: [3] 0.031 | [7] 0.036 | [8] 0.001 | [9] -0.074 | [10] -0.052 | [12] -0.071 | [17] 0.037

CPNE8 (UniProt Q86YQ8)
inactive: [1] 0.014 | [2] 0.095 | [3] 0.004 | [20] -0.09 | [4] -0.036 | [7] 0.097 | [8] 0.211 | [9] -0.005 | [10] -0.332 | [11] -0.103 | [12] 0.005 | [13] -0.086 | [14] 0.137 | [15] 0.039 | [17] -0.021 | [18] 0.048 | [19] 0.014

COPS3 isoform 2 (UniProt Q9UNS2)
inactive: [1] -0.207 | [20] -0.142 | [5] -0.101 | [6] 0.014 | [7] -0.074 | [8] 0.455 | [9] -0.013 | [10] -0.144 | [13] -0.297 | [15] 0.121 | [16] -0.132 | [19] 0.228

CPA4 (UniProt Q9UI42)
inactive: [1] 0.113 | [2] -0.101 | [3] -0.182 | [8] -0.094 | [10] 0.125 | [11] 0.393 | [12] 0.053 | [13] 0.239 | [15] 0.241 | [17] -0.25 | [18] 0.104 | [19] -0.112

CNOT7 (UniProt H0YBT3)
inactive: [1] 0.051 | [2] 0.091 | [12] 0.019 | [13] -0.154 | [15] -0.127 | [17] 0.093 | [19] 0.186

COL14A1 (UniProt Q05707)
inactive: [1] -0.049 | [2] 0.14 | [3] -0.001 | [20] 0.021 | [4] 0.031 | [7] -0.095 | [8] -0.02 | [9] -0.028 | [10] 0.071 | [11] -0.329 | [12] 0.016 | [13] 0.098 | [14] 0.067 | [15] 0.147 | [17] -0.089 | [18] 0.015 | [19] -0.007

COX17 (UniProt Q14061)
inactive: [1] 0.078 | [3] 0.113 | [7] 0.04 | [8] -0.08 | [9] 0.153 | [10] 0.061 | [12] -0.003 | [13] 0.178 | [15] -0.113 | [17] -0.139 | [19] -0.102

COMMD3-BMI1 (UniProt R4GMX3)
inactive: [2] -0.217 | [3] 0.031 | [4] 0.089 | [5] 0.153 | [6] -0.247 | [7] -0.025 | [8] -0.03 | [9] -0.103 | [10] -0.042 | [11] -0.088 | [12] -0.044 | [14] 0.017 | [16] 0.083 | [17] 0.011 | [18] -0.021

COQ8B (UniProt Q96D53)
inactive: [1] -0.293 | [3] -0.04 | [5] -0.162 | [6] 0.436 | [7] 0.362 | [9] -0.119 | [12] -0.145 | [13] -0.303 | [15] 0.163 | [16] 0.024 | [17] -0.065 | [19] 0.175

CNOT2 (UniProt F8VRS8)
inactive: [3] 0.004

COLEC11 isoform 10 (UniProt Q9BWP8)
inactive: [1] 0.047 | [2] -0.023 | [3] 0.002 | [20] 0.1 | [4] -0.088 | [5] 0.131 | [6] -0.086 | [11] -0.062 | [13] 0.006 | [14] 0.007 | [15] -0.024 | [16] 0.045 | [18] -0.242 | [19] 0.017

COL1A1 (UniProt P02452)
inactive: [1] -0.024 | [3] -0.196 | [13] 0.046 | [15] 0.032 | [19] -0.072

Taken from the entries so far (two entries):
CNOT2 (UniProt F8VRS8)
inactive: [3] 0.004

COLEC11 isoform 10 (UniProt Q9BWP8)
inactive: [1] 0.047 | [2] -0.023 | [3] 0.002 | [20] 0.1 | [4] -0.088 | [5] 0.131 | [6] -0.086 | [11] -0.062 | [13] 0.006 | [14] 0.007 | [15] -0.024 | [16] 0.045 | [18] -0.242 | [19] 0.017

(cont.)

CORO6 isoform 5 (UniProt Q6QEF8)
inactive: [1] 0.083 | [7] 0.039 | [8] 0.045 | [9] -0.081 | [10] -0.06 | [11] 0.017 | [12] -0.111 | [13] 0.235 | [15] -0.287 | [17] 0.067 | [18] 0 | [19] -0.055

Source: the supplement of paper PMC10849652
